These are yes or no findings as the source states them, for the method shown. In cells and extracts the contact can be indirect. Some binding calls cover weakened binding; strength is not graded here.
Target: Tom22 of Neurospora crassa with a hexahistidine tag (Neurospora crassa) (UniProt Q07335)
Assay: pull-down + SEC; His6-Tom22 held on a nickel-NTA column from outer membrane vesicles of N. crassa GR-107 solubilised in 1% GDN (10 mM MOPS pH 7.0, 50 mM potassium acetate, 50 mM imidazole), eluted with 300 mM imidazole, then Superdex 200 Increase; subunits seen by SDS-PAGE with Coomassie staining

Sequences of proteins named here, by UniProt entry; tags and fusion partners are left off.
UniProt Q07335: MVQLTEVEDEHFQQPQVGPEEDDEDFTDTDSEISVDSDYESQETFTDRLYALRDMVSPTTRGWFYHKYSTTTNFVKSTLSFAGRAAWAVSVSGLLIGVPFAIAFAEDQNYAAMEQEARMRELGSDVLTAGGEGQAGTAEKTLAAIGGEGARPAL

B1: Tom6 of the Neurospora crassa TOM complex (protein, UniProt Q1K6I2 1-60)
chain: MPSAKYIERPGGSRKSKGFIRSTYDSLTSSENASVVRSIAFFGAAVAFLSSSWGEMLVVQ
binding: binds
